Results published in publication doi:10.1101/2022.07.11.499655.

Biological target: NCOR2-013 (Flag-tagged), truncated protein of NCOR2/SMRT (human)
Assay: affinity purification with mass spectrometry

binding: binds
B1: JunB (protein, UniProt P17275 1-347)
chain: MCTKMEQPFYHDDSYTATGYGRAPGGLSLHDYKLLKPSLAVNLADPYRSLKAPGARGPGPEGGGGGSYFSGQGSDTGASLKLASSELERLIVPNSNGVITTTPTPPGQYFYPRGGGSGGGAGGAGGGVTEEQEGFADGFVKALDDLHKMNHVTPPNVSLGATGGPPAGPGGVYAGPEPPPVYTNLSSYSPASASSGGAGAAVGTGSSYPTTTISYLPHAPPFAGGHPAQLGLGRGASTFKEEPQTVPEARSRDATPPVSPINMEDQERIKVERKRLRNRLAATKCRKRKLERIARLEDKVKTLKAENAGLSSTAGLLREQVAQLKQKVMTHVSNGCQLLLGVKGHAF

No constants are given. Whether binding was seen depends on the method and setting. In cells and extracts the contact can be indirect. A yes stands for co-enrichment or nearness to the bait. Other partners may have been found.
